Results: PubChem BioAssay AID192 (DTP/NCI, 2004)
The list does not hold the whole screen: it is rich in T/C values a quarter to a half above the control, in often repeated tests (any T/C) and in doses without a T/C. Further doses and runs are listed elsewhere. T/C gives the treated animals as a percentage of the vehicle group. Some doses have a count of surviving animals in place of a T/C: the source holds a T/C of zero for them, seemingly a mark for toxic or unscored doses. Some doses without a T/C left all or most animals alive at the check, yet need not have been tolerated: the source hardly ever lists a survival T/C far under the control, and the zero likely stands for such cases as well. Counts of survivors are from the toxicity check (mostly the fifth day) where no day follows; animals may have died later. Schedules are NCI's codes, taken here to give the interval after Q, in days (D) or hours (H), and the number of doses after X. Some entries hold several experiments; the results are listed from low to high. Counts like (3×) say how often a value occurs here. Some structures stand for samples that the source files as different forms (salt, stereo form or complex); doses refer to the form tested. For survival time, the PubChem record calls one and a half times the control and up active, and a quarter to a half above the control has no call in these data; cut-offs in other NCI protocols can differ. Some T/C values carry the count of animals alive at the toxicity check (mostly the fifth day); where none is given, no animal had died by that day.

System: BDF1 mice, B16 melanoma ip, median survival T/C
Test: NCI In Vivo Anticancer Drug Screen. Data for tumor model B16 Melanoma (intraperitoneal) in B6D2F1 (BDF1) mice
Conditions: T/C endpoint: median survival time, higher T/C = longer survival
Summary of the method: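 Transplantable tumor model; survival or tumor size measured; reported as T/C, treated over vehicle control.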

[1] = dose: 200.0 mg/kg/injection, schedule: Q01DX009 (ip), vehicle: saline with Tween-80
[2] = dose: 12.5 mg/kg/injection, schedule: Q01DX009 (ip), vehicle: saline
[3] = dose: 32.0 mg/kg/injection, schedule: Q02DX009 (ip), vehicle: saline
[4] = dose: 50.0 mg/kg/injection, schedule: Q01DX009 (ip), vehicle: saline
[5] = dose: 100.0 mg/kg/injection, schedule: Q01DX009 (ip), vehicle: saline
[6] = dose: 50.0 mg/kg/injection, schedule: Q01DX009 (ip), vehicle: Klucel (hydroxypropylcellulose) (HPC)
[7] = dose: 100.0 mg/kg/injection, schedule: Q01DX009 (ip), vehicle: Klucel (hydroxypropylcellulose) (HPC)
[8] = dose: 200.0 mg/kg/injection, schedule: Q01DX009 (ip), vehicle: Klucel (hydroxypropylcellulose) (HPC)
[9] = dose: 400.0 mg/kg/injection, schedule: Q01DX009 (ip), vehicle: Klucel (hydroxypropylcellulose) (HPC)

## COC(=O)[C@@]12OC[C@]34[C@H]([C@@H](O)[C@@H]1O)[C@@]1(C)CC(=O)C(O)=C(C)[C@@H]1C[C@H]3OC(=O)[C@H](OC(=O)/C=C(\C)C(C)C)[C@@H]24
dose: 0.06 mg/kg/injection, schedule: Q01DX009 (ip), vehicle: saline + alcohol
  T/C: 132 and 138 % of control
dose: 0.12 mg/kg/injection, schedule: Q01DX009 (ip), vehicle: saline + alcohol
  T/C: 147 % of control
dose: 0.25 mg/kg/injection, schedule: Q01DX009 (ip), vehicle: saline + alcohol
  T/C: 148 % of control
dose: 2.0 mg/kg/injection, schedule: Q01DX009 (ip), vehicle: other
  survivor count: 7 of 10
dose: 2.0 mg/kg/injection, schedule: Q01DX009 (ip), vehicle: saline + alcohol
  survivor count: 6 of 10
dose: 4.0 mg/kg/injection, schedule: Q01DX009 (ip), vehicle: other
  survivor count: 0 of 10
dose: 63.0 micrograms/kg/injection, schedule: Q01DX009 (ip), vehicle: saline + alcohol
  T/C: 145 % of control

## CNC(=O)c1cccc2c(Nc3ccc(NS(C)(=O)=O)cc3OC)c3cccc(C)c3nc12
dose: 0.75 mg/kg/injection, schedule: Q01DX009 (ip), vehicle: water
  T/C: 136 % of control
dose: 6.0 mg/kg/injection, schedule: Q01DX009 (ip), vehicle: water
  survivor count: 10 of 10
dose: 12.0 mg/kg/injection, schedule: Q01DX009 (ip), vehicle: water
  survivor count: 10 of 10
dose: 12.5 mg/kg/injection, schedule: Q01DX009 (ip), vehicle: water
  survivor count: 9 of 10
dose: 25.0 mg/kg/injection, schedule: Q01DX009 (ip), vehicle: water
  survivor count: 7 of 10
dose: 50.0 mg/kg/injection, schedule: Q01DX009 (ip), vehicle: water
  survivor count: 5 of 10
dose: 100.0 mg/kg/injection, schedule: Q01DX009 (ip), vehicle: water
  survivor count: 4 of 10
dose: 200.0 mg/kg/injection, schedule: Q01DX009 (ip), vehicle: water
  survivor count: 1 of 10

## O=NN(CCF)C(=O)NC1CCC(=O)NC1=O (stereo not given)
dose: 3.75 mg/kg/injection, schedule: Q01DX001 (ip), vehicle: saline
  T/C: 126 % of control

## Nc1ccc(S(=O)(=O)c2ccc(N)cc2)cc1
[1]
  survivor count: 5 of 10
dose: 400.0 mg/kg/injection, schedule: Q01DX009 (ip), vehicle: saline with Tween-80
  survivor count: 2 of 10

## C1CN(P2(N3CC3)=NP(N3CC3)(N3CC3)=NP(N3CC3)(N3CC3)=N2)CCO1 (stereo not given)
dose: 3.13 mg/kg/injection, schedule: Q01DX009 (ip), vehicle: saline
  T/C: 142 % of control
dose: 4.0 mg/kg/injection, schedule: Q02DX009 (ip), vehicle: saline
  T/C: 125 % of control
dose: 6.25 mg/kg/injection, schedule: Q01DX009 (ip), vehicle: saline
  T/C: 107, 124, 125, 126, 133, 142 % of control
dose: 6.25 mg/kg/injection, schedule: Q02DX009 (ip), vehicle: saline
  T/C: 125 and 126 % of control
dose: 8.0 mg/kg/injection, schedule: Q02DX009 (ip), vehicle: saline
  T/C: 141 and 144 % of control
[2]
  T/C: 116, 140, 148, 162, 164, 166 % of control
dose: 12.5 mg/kg/injection, schedule: Q02DX009 (ip), vehicle: saline
  T/C: 131 % of control
dose: 16.0 mg/kg/injection, schedule: Q02DX009 (ip), vehicle: saline
  T/C: 129 % of control [8 of 10 alive]
dose: 25.0 mg/kg/injection, schedule: Q01DX009 (ip), vehicle: saline
  T/C: 149, 164, 166, 178, 188, 217 % of control
[3]
  T/C: 122, 206, 224 % of control
  survivor count: 9 of 10
[4]
  T/C: 108 and 208 % of control
  survivor count: 10 of 10
dose: 50.0 mg/kg/injection, schedule: Q02DX009 (ip), vehicle: saline
  survivor count: 10 of 10
dose: 64.0 mg/kg/injection, schedule: Q02DX009 (ip), vehicle: saline
  survivor count: 10 of 10
[5]
  survivor count: 9 of 10 (2×) and 10 of 10
dose: 100.0 mg/kg/injection, schedule: Q02DX009 (ip), vehicle: saline
  survivor count: 10 of 10
dose: 128.0 mg/kg/injection, schedule: Q02DX009 (ip), vehicle: saline
  survivor count: 10 of 10
dose: 200.0 mg/kg/injection, schedule: Q01DX009 (ip), vehicle: saline
  survivor count: 8 of 10 and 9 of 10 (2×)
dose: 200.0 mg/kg/injection, schedule: Q02DX009 (ip), vehicle: saline
  survivor count: 10 of 10
dose: 256.0 mg/kg/injection, schedule: Q02DX009 (ip), vehicle: saline
  survivor count: 9 of 10
dose: 512.0 mg/kg/injection, schedule: Q02DX009 (ip), vehicle: saline
  survivor count: 10 of 10

## Nc1c(Cl)cc(C(=O)NC2CC2)cc1Cl
[5]
  survivor count: 10 of 10

## CC1(C)CC1(Br)Br
[1]
  survivor count: 10 of 10

## CN(CCCOS(C)(=O)=O)CCCOS(C)(=O)=O
dose: 5.0 mg/kg/injection, schedule: Q01DX009 (ip), vehicle: saline
  T/C: 128 % of control
[2]
  T/C: 126 % of control
[4]
  survivor count: 10 of 10
dose: 80.0 mg/kg/injection, schedule: Q01DX009 (ip), vehicle: saline
  survivor count: 6 of 6
[5]
  survivor count: 10 of 10

## C1CCC2[N-]CC3CCCCC3[N-]CC3CCCCC3[N-]CC3CCCCC3[N-]CC2C1.[Cu] (stereo not given)
dose: 3.12 mg/kg/injection, schedule: Q01DX009 (ip), vehicle: Klucel (hydroxypropylcellulose) (HPC)
  T/C: 133 and 139 % of control
dose: 6.25 mg/kg/injection, schedule: Q01DX009 (ip), vehicle: Klucel (hydroxypropylcellulose) (HPC)
  T/C: 133, 152, 165, 167 % of control
dose: 12.5 mg/kg/injection, schedule: Q01DX009 (ip), vehicle: Klucel (hydroxypropylcellulose) (HPC)
  T/C: 128, 162, 172, 178 % of control
dose: 25.0 mg/kg/injection, schedule: Q01DX009 (ip), vehicle: Klucel (hydroxypropylcellulose) (HPC)
  survivor count: 6 of 10, 9 of 10, 10 of 10
[6]
  survivor count: 0 of 10 and 1 of 10
[7]
  survivor count: 0 of 10

## COc1cc2c3c(c1)/C(=N\NC(N)=O)CCN3CCC2
[7]
  survivor count: 10 of 10
[8]
  survivor count: 10 of 10
[9]
  survivor count: 10 of 10

## C=CCOCC(O)CN(C)C1CCCCC1 (stereo not given)
dose: 100.0 mg/kg/injection, schedule: Q04DX003 (ip), vehicle: saline
  survivor count: 9 of 10
dose: 200.0 mg/kg/injection, schedule: Q04DX003 (ip), vehicle: saline
  survivor count: 0 of 10

## CCOC(=O)Cc1ccccn1
[7]
  T/C: 130 % of control
[8]
  T/C: 134 % of control
[9]
  T/C: 134 % of control

## Cc1ccccc1N1C(=O)CSC1=S
[6]
  survivor count: 10 of 10
[7]
  survivor count: 10 of 10
[8]
  survivor count: 6 of 10
[9]
  survivor count: 2 of 10
